Laboratory results as given in the supplement of paper PMC5949888.
Most values lie at the floor of the assay. Slopes are relative: functional sequences can read slightly below zero.

Test system: Saccharomyces cerevisiae PS128 hsf1 delta, HSF1(1-493) fusion
Test: growth estimate (transactivation domain function in HSF1 fusion, heat-shock survival) (a.u. (slope of normalised read count over time)); higher = stronger growth at 37°C, i.e. more transactivation activity
Settings: library: random library
Description: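 Random 60-nt DNA library encoding peptides of up to 20 aa, fused to the C-terminus of yeast HSF1 residues 1-493 (C-terminal TAD deleted) and expressed from the native HSF1 promoter on a CEN plasmid in hsf1-deleted S. cerevisiae PS128. Cells were selected at 37°C on -trp 5-FOA plates for 0, 2, 4, 6 and 8 days and amplicons were sequenced. Growth estimate is the slope of a robust linear fit of total-sum-normalised read counts (normalised to the first time point) over time, using at least 2 replicates. Sequences are classed functional (TAD activity) above a threshold of -0.13, set from stop-codon control sequences.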

Substance | growth estimate
DRSTPVRIQGLPTQGHLACV | < -0.25
DRTEPRVCDVR | < -0.25
DRTPEAPSTRFLCTGRAVWA | < -0.25
DRTRVLDRGHLNILPECI | < -0.25
DRTSEHVAS | < -0.25
DRVFVNCQTAFDQVTEHEYC | < -0.25
DRVGFVNRAYLTCQPAQFRD | < -0.25
DRVTALGKQQY | -0.245
DRW | < -0.25
DRYE | < -0.25
DRYHHLPANSLQSRNACAYV | < -0.25
DRYKVFEITLLRSVPK | < -0.25
DSCGQKPRHGVHLGGIQPLL | < -0.25
DSDVGTHPIIWIVT | < -0.25
DSEGGQGRCRITGSRLITPT | < -0.25
DSESADFHGQSGVYGIAVHR | < -0.25
DSFGDVVMLIWTSSLKHWRP | -0.245
DSFRLYLLAFL | < -0.25
DSG | < -0.25
DSGSGGQVRAKVHTRTRAHV | < -0.25
DSGSR | < -0.25
DSHYCARSSESCESRRRRQL | < -0.25
DSIFYYRVHSKVAAVRLTQR | < -0.25
DSLHAIGGLG | < -0.25
DSLRVTIDLFCQKWLRRHGL | < -0.25

Substance | growth estimate
DSN | < -0.25
DSPRHNALSKRNLRRHAKSG | < -0.25
DSPVTET | < -0.25
DSQCLEPP | < -0.25
DSRGGVQSVELAG | < -0.25
DSRGSRSGSRMLLEMFLWHR | < -0.25
DSRMDR | < -0.25
DSRPQPRFRVCVGGK | < -0.25
DSRQRGDVR | < -0.25
DSRRPRRGTVPSSLHFNLSV | < -0.25
DSSPLPLGEPAFKLSVGELF | < -0.25
DSSVDLALLMGSSRGYDLEM | < -0.25
DSTTTIAWALKPRTTRRSLP | < -0.25
DSVPHRFYFVSPFVYHVSLV | < -0.25
DSVRYPPDSQQPS | < -0.25
DSVTWWFVYLPLE | < -0.25
DTCRAMKCSATILIHNLFSL | < -0.25
DTDGSSYLLI | < -0.25
DTFTWGCLWWIKKMSGVILI | < -0.25
DTIHMVRVYKTTPSKVPCRG | < -0.25
DTM | < -0.25
DTMDVVRHQLTPRLGLQLVV | < -0.25
DTPGFSGAHHR | < -0.25
DTTAAGSSITSSEIALIRHG | < -0.25
DTTGT | < -0.25

Two consecutive entries from above, for reference:
Substance | growth estimate
DSRQRGDVR | < -0.25
DSRRPRRGTVPSSLHFNLSV | < -0.25

(listing goes on)

Substance | growth estimate
DTTTSRS | < -0.25
DVAAPGRRDLEALSTVTFLG | < -0.25
DVALYV | < -0.25
DVAR | < -0.25
DVASRATVLCIGRFC | < -0.25
DVAV | < -0.25
DVCEFLT | < -0.25
DVCVAGAECMCR | < -0.25
DVCVPGVRESHALPAGFCRI | < -0.25
DVDGFIVQSDCGQSLPILQQ | < -0.25
DVGLILSELEVTRELSSPKM | < -0.25
DVHKGANAPPPFRDLNPLTR | < -0.25
DVIETTRVRRVVGPREGKGF | < -0.25
DVIYTEPEKS | < -0.25
DVKPRNSLIHC | < -0.25
DVMHCSETKTGGWSAVRKHR | -0.246
DVN | < -0.25
DVNLR | < -0.25
DVPGMCLS | < -0.25
DVRIIRDT | < -0.25
DVRLRRAFSAKIIGMYYYAG | < -0.25
DVRPDFPLRHCSGPTLVYVR | < -0.25
DVRYAMHATVGTLLG | < -0.25
DVSLR | < -0.25
DVSPAPYGVWGPGPNH | < -0.25

29 entries from above, as tab-separated lines:
Substance	growth estimate
DTFTWGCLWWIKKMSGVILI	< -0.25
DTIHMVRVYKTTPSKVPCRG	< -0.25
DTM	< -0.25
DTPGFSGAHHR	< -0.25
DTTAAGSSITSSEIALIRHG	< -0.25
DTTTSRS	< -0.25
DVAAPGRRDLEALSTVTFLG	< -0.25
DVALYV	< -0.25
DVAR	< -0.25
DVASRATVLCIGRFC	< -0.25
DVAV	< -0.25
DVCEFLT	< -0.25
DVCVAGAECMCR	< -0.25
DVCVPGVRESHALPAGFCRI	< -0.25
DVDGFIVQSDCGQSLPILQQ	< -0.25
DVGLILSELEVTRELSSPKM	< -0.25
DVHKGANAPPPFRDLNPLTR	< -0.25
DVIETTRVRRVVGPREGKGF	< -0.25
DVKPRNSLIHC	< -0.25
DVMHCSETKTGGWSAVRKHR	-0.246
DVN	< -0.25
DVNLR	< -0.25
DVPGMCLS	< -0.25
DVRIIRDT	< -0.25
DVRLRRAFSAKIIGMYYYAG	< -0.25
DVRPDFPLRHCSGPTLVYVR	< -0.25
DVRYAMHATVGTLLG	< -0.25
DVSLR	< -0.25
DVSPAPYGVWGPGPNH	< -0.25

(next part)

Substance | growth estimate
DVTDWGRANMKEQRRLKSAV | < -0.25
DVTVLYT | < -0.25
DVVMTQRT | 0.0423
DVVR | < -0.25
DVVRY | < -0.25
DVYS | < -0.25
DWASHNA | < -0.25
DWASSGT | < -0.25
DWGGIGVPSI | < -0.25
DWITNSNGGN | < -0.25
DWRPLKVSVLT | < -0.25
DWTVMVIHSAR | < -0.25
DYGARNHSDVTISA | < -0.25
DYGMLAMGASHREGSSWSLR | < -0.25
DYSISSATPLPKRSGSVAER | < -0.25
DYSPKPLA | < -0.25
DYTLVRQGKINTVGGGTVVA | < -0.25
DYTPGSKRTGHMSQKVQQRP | < -0.25
DYVANETAQTLRQEASGLKP | < -0.25
DYVPNICTQVLDREVTGHLD | 0.154
EAAGGVTHGLGGRQGKSSP | < -0.25
EACSNSDRAEGQMGHV | < -0.25
EAFVLVSDCVPLWKSLDELC | < -0.25
EAGSSPQNSYCLSALSG | < -0.25
EAKLAAGQRCGDELARQSRA | < -0.25

Substance | growth estimate
EAMKATVAR | < -0.25
EAPMPQVQRTLIRIAPPMLV | < -0.25
EARERWMGYIPAG | < -0.25
EARRGKMGSNTPHGTIGSPN | < -0.25
EASYVSVLRFGVLLLNSVTT | < -0.25
EATGKTQSGNENAHPAATYY | < -0.25
EATSFFFSSVQSVQLSLVRG | < -0.25
EAV | < -0.25
EAVKSGVRHDNVMTETLSIA | < -0.25
ECLVAY | < -0.25
ECQIRLG | -0.233
ECQVRSSHGSDDFVYVSGKR | < -0.25
ECRASSRSGVLGSVGKPLSR | < -0.25
ECRIR | < -0.25
ECRSIRAQHREGPKG | < -0.25
ECSCKPRLRPASPL | < -0.25
ECSHSPVLLPNKRMRTNTYK | < -0.25
ECVCGYSLEPSWC | -0.0376
ECVTASEDSSVTLTGAERTL | < -0.25
EDAGRAWGFYS | < -0.25
EDCNPLGHRR | < -0.25
EDDSV | -0.246
EDG | < -0.25
EDGLCHNSSWCGGWLISIEG | < -0.25
EDGLGSTVTPCPLLPLAPCA | < -0.25

Substance | growth estimate
EDGSGEAL | < -0.25
EDKWVKTRRIDWQRNTRF | -0.243
EDLVRFRP | < -0.25
EDRGTWGKGAA | < -0.25
EECNVWWVFSC | < -0.25
EECQESAYITVPAGSHKA | < -0.25
EEDV | < -0.25
EEEKGREGNIVSTRERKLLR | < -0.25
EEFGVQEQGVELRSSKSSTG | < -0.25
EEGHFGSH | < -0.25
EEGLNPKGPEEPLNGEVHCA | < -0.25
EEKVRPTHLGDYKRMIWTMR | < -0.25
EELHPNYCGMNHPDWDG | < -0.25
EEQDGHPEAILNRAVQQAAT | < -0.25
EERHNVPEFG | < -0.25
EERRVVRSAR | < -0.25
EESNLHISRRVGFCVSSHLR | < -0.25
EESVRCEIDLSFN | < -0.25
EETHLRASGDLPAVTVIWLY | < -0.25
EEVCLLV | < -0.25
EEVQV | < -0.25
EEWEQGKDLLHVTRNVSMPQ | < -0.25
